This note sets out measurements from article doi:10.1101/2024.09.09.611999.

Amino acid sequences for entries named in this document (tags omitted).
UniProt P11142: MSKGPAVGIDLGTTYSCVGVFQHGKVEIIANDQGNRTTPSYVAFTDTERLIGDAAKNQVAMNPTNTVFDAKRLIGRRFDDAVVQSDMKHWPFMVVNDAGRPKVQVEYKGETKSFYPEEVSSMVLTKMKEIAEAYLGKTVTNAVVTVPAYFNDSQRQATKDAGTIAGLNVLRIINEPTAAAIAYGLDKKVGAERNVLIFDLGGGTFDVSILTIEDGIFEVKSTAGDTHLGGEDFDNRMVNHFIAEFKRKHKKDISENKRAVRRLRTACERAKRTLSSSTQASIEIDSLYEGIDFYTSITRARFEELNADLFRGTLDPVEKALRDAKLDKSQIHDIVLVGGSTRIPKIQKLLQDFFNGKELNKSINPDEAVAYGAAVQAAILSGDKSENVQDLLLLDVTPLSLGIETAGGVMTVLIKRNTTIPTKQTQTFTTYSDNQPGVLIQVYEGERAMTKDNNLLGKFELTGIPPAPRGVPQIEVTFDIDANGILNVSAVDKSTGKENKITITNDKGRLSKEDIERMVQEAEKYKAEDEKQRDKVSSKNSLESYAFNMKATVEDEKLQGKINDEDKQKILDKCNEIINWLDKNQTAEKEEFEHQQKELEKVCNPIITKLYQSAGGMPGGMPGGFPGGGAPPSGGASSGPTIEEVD

Results are given in words; binding and its absence hold for the method and conditions named. Binding seen in cells or lysates may run through a third protein. A yes stands for co-enrichment or nearness to the bait. Other partners may have been found.

The test deals with T1, peroxiredoxin 6 (PRDX6) (human) (UniProt P30041).
T1 sequence: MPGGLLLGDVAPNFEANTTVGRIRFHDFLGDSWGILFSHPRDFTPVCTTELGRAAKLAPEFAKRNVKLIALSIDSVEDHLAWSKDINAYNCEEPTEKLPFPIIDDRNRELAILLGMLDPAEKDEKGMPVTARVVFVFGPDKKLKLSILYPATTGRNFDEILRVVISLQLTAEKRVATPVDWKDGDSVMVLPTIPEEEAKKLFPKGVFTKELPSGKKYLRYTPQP
As to the kind of experiment: affinity purification with mass spectrometry.

In the case of HSPA8 (from UniProt P11142 1-646), the binding entry is “binds”.
